Assay results published in publication PMC11599752.
Read-outs that look alike come from different tables or passages of the source. No constants are given. Whether binding was seen depends on the method and setting. In cells and extracts the contact can be indirect. Some binding calls cover weakened binding; strength is not graded here. Blank lines part the entries; values can stand above or below the molecule they belong to.

Protein sequences, listed by entry. Tags and fused reporters are not part of them.
UniProt P35637: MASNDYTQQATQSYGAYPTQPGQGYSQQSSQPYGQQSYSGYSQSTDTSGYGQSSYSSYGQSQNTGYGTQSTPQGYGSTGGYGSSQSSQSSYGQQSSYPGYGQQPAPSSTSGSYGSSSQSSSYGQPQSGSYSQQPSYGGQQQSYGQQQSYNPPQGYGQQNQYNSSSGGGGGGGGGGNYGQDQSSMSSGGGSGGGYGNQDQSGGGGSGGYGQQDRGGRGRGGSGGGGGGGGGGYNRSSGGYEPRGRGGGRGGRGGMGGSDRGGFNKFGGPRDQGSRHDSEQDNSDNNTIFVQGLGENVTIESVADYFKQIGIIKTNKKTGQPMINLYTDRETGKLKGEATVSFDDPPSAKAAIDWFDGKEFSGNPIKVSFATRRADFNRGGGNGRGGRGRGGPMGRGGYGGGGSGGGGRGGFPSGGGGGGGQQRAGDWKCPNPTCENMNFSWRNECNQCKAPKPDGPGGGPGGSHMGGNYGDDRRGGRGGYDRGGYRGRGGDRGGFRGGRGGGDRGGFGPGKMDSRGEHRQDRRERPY
UniProt P12956: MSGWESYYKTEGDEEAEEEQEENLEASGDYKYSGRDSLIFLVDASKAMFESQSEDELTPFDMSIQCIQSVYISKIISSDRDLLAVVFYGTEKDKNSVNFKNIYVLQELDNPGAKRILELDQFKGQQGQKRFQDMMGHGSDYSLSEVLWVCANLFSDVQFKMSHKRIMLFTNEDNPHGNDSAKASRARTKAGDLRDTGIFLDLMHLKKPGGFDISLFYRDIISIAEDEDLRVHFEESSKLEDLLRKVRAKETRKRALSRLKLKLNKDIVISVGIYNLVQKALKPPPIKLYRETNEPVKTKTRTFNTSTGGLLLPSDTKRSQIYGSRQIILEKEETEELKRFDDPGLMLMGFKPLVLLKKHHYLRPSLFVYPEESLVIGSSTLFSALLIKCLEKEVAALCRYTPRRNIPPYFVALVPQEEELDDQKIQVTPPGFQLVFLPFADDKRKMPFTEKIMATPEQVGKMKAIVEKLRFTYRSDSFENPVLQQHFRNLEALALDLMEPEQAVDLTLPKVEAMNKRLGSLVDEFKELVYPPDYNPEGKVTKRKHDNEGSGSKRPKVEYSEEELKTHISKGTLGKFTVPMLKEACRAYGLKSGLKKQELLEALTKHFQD

Assays:
[1] = target: T1, SFPQ (human (endogenous in TREx-BCBL1-RTA)) (UniProt P23246); assay: co-IP
T1 sequence: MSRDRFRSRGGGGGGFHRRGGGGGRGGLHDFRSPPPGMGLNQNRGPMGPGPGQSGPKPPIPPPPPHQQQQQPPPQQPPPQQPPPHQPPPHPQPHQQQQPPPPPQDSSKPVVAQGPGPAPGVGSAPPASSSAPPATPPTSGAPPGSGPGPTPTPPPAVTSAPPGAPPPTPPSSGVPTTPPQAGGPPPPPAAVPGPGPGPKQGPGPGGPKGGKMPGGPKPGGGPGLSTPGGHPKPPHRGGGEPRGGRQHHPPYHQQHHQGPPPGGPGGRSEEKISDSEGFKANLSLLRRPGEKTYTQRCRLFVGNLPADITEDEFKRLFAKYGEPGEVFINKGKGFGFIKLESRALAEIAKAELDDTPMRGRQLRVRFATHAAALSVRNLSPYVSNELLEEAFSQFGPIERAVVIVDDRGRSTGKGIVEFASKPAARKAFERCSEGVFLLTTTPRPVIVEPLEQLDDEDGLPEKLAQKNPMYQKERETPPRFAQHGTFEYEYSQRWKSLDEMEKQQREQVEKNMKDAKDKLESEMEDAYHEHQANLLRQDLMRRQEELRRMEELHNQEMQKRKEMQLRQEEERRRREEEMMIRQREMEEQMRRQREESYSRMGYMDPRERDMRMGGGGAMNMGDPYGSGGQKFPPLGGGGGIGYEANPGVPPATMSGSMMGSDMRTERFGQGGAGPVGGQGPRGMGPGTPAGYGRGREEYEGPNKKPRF

[2] = target: T1, SFPQ (human (endogenous in TREx-BCBL1-RTA)); assay: co-IP; remark: listed apart in the source

- binding [1]: binds
Molecule: FUS (from UniProt P35637 1-526)

- binding [1]: binds
Molecule: Ku70 (from UniProt P12956 1-609)

- binding [2]: binds
B1: PSPC1 (protein, UniProt Q8WXF1 1-523)
chain: MMLRGNLKQVRIEKNPARLRALESAVGESEPAAAAAMALALAGEPAPPAPAPPEDHPDEEMGFTIDIKSFLKPGEKTYTQRCRLFVGNLPTDITEEDFKRLFERYGEPSEVFINRDRGFGFIRLESRTLAEIAKAELDGTILKSRPLRIRFATHGAALTVKNLSPVVSNELLEQAFSQFGPVEKAVVVVDDRGRATGKGFVEFAAKPPARKALERCGDGAFLLTTTPRPVIVEPMEQFDDEDGLPEKLMQKTQQYHKEREQPPRFAQPGTFEFEYASRWKALDEMEKQQREQVDRNIREAKEKLEAEMEAARHEHQLMLMRQDLMRRQEELRRLEELRNQELQKRKQIQLRHEEEHRRREEEMIRHREQEELRRQQEGFKPNYMENREQEMRMGDMGPRGAINMGDAFSPAPAGNQGPPPMMGMNMNNRATIPGPPMGPGPAMGPEGAANMGTPMMPDNGAVHNDRFPQGPPSQMGSPMGSRTGSETPQAPMSGVGPVSGGPGGFGRGSQGGNFEGPNKRRRY
